{
  "source": "patent US20110045032A1",
  "about": "(priority 2001, published 2011)",
  "origin": "cited, not measured here",
  "key": {"[1]": {"tested_on": "children with non-allergic perennial rhinitis (NAPR) and allergic perennial rhinitis (APR)", "conditions": "IB compared with BDP; cited from earlier work"}, "mast cells": {"tested_on": "mast cells", "conditions": "cited from earlier work"}, "[2]": {"tested_on": "adult acute asthma exacerbation", "conditions": "three trials in adults; 95% CI 0.61-1.06; cited from earlier work"}},
  "data": [
    {"smiles": "CC(C)[N+]1(C)[C@@H]2CC[C@H]1C[C@@H](OC(=O)C(CO)c1ccccc1)C2", "note": "(stereo partly shown) [IB, Ipratropium Bromide]", "values": [
      {"measurement": "nasal bleeding and irritation", "setting": "[1]", "result": "less nasal bleeding and irritation"},
      {"measurement": "decrease in speed of passive calcium ion uptake", "setting": "mast cells", "result": 28, "unit": "%"},
      {"measurement": "relative risk of hospitalization", "setting": "[2]", "result": 0.80}
    ]},
    {"smiles": "CN1[C@@H]2CC[C@H]1C[C@@H](OC(=O)C(CO)c1ccccc1)C2", "note": "(stereo partly shown) [atropine]", "values": [
      {"measurement": "decrease in speed of passive calcium ion uptake", "setting": "mast cells", "result": "not"}
    ]}
  ]
}
